The other results are listed elsewhere or left out. The main result of the screen is listed elsewhere. These columns were measured beside it and carry no call. Most of these compounds were active or inconclusive in the main read-out, so they are no random draw. Words in brackets tell the shape of the fitted curve; partial curves, single points and poor fits give uncertain potencies.

This assay in a line: A High-Content qHTS Against Drug Library for the Identification of Small Molecules that Inhibit DYT1 Early Onset Primary Dystonia-Associated Cell Pathology (AID 1645839). To be noted: HEK293 Flp-In EGFP-delE TorsinA, punctate imaging, 48 h; measured here: cell count cytotoxicity. The gist of the method: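 In this high-content image screen, delE TorsinA mislocalization in inducible Flp-In 293 cells is scored as %pathology, with cell count serving as the counterscreen. Compound exposure lasts 48 h under tetracycline induction in reduced-serum medium.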
In general terms: qHTS replaces the single test concentration by a dilution series.
The term AC50 denotes the concentration giving half of the maximal activity seen. In the case of `c1ccc(-c2ccc(C(c3ccccc3)n3ccnc3)cc2)cc1` (configuration not stated), the half-maximal activity concentration (AC50) is 11.2 µM [falling, partial curve].

As to `CN(C)CCOC(c1ccccc1)c1ccc(Br)cc1` (configuration not stated), the AC50 was 8.91 µM [falling, partial curve, poor fit].

`O=C1OC2(c3ccc(O)cc3Oc3cc(O)ccc32)c2ccccc21`: the AC50 was 6.31 µM [falling, single point].

In the case of `CN1CCC(N(Cc2cccs2)c2ccccc2)CC1`, the AC50 is 7.08 µM [falling, full curve, poor fit].

Take `CCOc1cc(N)c(Cl)cc1C(=O)NCC1CN(Cc2ccc(F)cc2)CCO1` (configuration not stated): the half-maximal activity concentration (AC50) is 1.58 µM [falling, full curve].

With `NC(N)=NCCN1CCCCCCC1`, the AC50 is 0.214 µM [falling, single point].

For `C#CC1(O)CC[C@H]2[C@@H]3CCC4=CCCC[C@@H]4[C@H]3CC[C@@]21C` (some centres not stated), the AC50 is 35.5 µM [falling, single point].

Take `CC(=O)Nc1ccc(O)cc1`: the AC50 was 2.24 µM [rising, full curve].

For the compound `Cc1cc(=O)oc2cc(O[C@@H]3SC[C@@H](O)[C@H](O)[C@H]3O)ccc12`, the AC50 was 3.16 µM [falling, full curve].

For the compound `CC(C)=CCNc1ncnc2c1ncn2[C@@H]1O[C@H](CO)[C@@H](O)[C@H]1O`, the AC50 is 3.16 µM [falling, full curve].

For the compound `Cc1ccccc1N=Nc1ccc(N=Nc2c(O)ccc3ccccc23)c(C)c1`, the half-maximal activity concentration (AC50) was 20 µM [rising, single point].

In the case of `CC[C@]1(O)C[C@@H]2CN(CCc3c([nH]c4ccccc34)[C@@](C(=O)OC)(c3cc4c(cc3OC)N(C)[C@H]3[C@@](O)(C(=O)OC)[C@H](OC(C)=O)[C@]5(CC)C=CCN6CC[C@]43[C@@H]65)C2)C1`, the AC50 is 3.16 µM [falling, full curve, poor fit].
